Results are given in words; binding and its absence hold for the method and conditions named. Binding seen in cells or lysates may run through a third protein. Tags and fused reporters may be left off the sequences shown.
Biological target: T1, mEGFP-BAK (UniProt Q16611)
T1 sequence: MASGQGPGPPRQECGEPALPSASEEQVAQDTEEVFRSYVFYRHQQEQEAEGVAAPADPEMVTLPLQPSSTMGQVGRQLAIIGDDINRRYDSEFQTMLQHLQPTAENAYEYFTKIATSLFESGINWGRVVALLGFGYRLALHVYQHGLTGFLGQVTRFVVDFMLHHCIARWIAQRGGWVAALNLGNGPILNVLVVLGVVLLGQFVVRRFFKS
Assay: co-IP; as a5, but control (untreated) cells

Chains of the proteins cited; added tags and fusions are not shown.
UniProt Q07812: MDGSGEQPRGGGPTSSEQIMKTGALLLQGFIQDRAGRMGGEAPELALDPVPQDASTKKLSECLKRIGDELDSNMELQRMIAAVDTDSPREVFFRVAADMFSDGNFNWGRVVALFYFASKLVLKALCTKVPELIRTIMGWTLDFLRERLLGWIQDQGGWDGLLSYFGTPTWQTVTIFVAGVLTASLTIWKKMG

“BAX (endogenous, BAK KO U2OS cells) (from UniProt Q07812 1-192)” was tested, and the binding was “no binding (condition: control (untreated) cells)”.
